IC50 data for one compound are collected here from paper PMC4004800, “Preclinical evaluation of marketed sodium channel blockers in a rat model of myotonia discloses promising antimyotonic drugs” (Experimental Neurology, 2014).

The chains behind the UniProt entries cited, without tags or fusion partners.
UniProt P35499, whole entry: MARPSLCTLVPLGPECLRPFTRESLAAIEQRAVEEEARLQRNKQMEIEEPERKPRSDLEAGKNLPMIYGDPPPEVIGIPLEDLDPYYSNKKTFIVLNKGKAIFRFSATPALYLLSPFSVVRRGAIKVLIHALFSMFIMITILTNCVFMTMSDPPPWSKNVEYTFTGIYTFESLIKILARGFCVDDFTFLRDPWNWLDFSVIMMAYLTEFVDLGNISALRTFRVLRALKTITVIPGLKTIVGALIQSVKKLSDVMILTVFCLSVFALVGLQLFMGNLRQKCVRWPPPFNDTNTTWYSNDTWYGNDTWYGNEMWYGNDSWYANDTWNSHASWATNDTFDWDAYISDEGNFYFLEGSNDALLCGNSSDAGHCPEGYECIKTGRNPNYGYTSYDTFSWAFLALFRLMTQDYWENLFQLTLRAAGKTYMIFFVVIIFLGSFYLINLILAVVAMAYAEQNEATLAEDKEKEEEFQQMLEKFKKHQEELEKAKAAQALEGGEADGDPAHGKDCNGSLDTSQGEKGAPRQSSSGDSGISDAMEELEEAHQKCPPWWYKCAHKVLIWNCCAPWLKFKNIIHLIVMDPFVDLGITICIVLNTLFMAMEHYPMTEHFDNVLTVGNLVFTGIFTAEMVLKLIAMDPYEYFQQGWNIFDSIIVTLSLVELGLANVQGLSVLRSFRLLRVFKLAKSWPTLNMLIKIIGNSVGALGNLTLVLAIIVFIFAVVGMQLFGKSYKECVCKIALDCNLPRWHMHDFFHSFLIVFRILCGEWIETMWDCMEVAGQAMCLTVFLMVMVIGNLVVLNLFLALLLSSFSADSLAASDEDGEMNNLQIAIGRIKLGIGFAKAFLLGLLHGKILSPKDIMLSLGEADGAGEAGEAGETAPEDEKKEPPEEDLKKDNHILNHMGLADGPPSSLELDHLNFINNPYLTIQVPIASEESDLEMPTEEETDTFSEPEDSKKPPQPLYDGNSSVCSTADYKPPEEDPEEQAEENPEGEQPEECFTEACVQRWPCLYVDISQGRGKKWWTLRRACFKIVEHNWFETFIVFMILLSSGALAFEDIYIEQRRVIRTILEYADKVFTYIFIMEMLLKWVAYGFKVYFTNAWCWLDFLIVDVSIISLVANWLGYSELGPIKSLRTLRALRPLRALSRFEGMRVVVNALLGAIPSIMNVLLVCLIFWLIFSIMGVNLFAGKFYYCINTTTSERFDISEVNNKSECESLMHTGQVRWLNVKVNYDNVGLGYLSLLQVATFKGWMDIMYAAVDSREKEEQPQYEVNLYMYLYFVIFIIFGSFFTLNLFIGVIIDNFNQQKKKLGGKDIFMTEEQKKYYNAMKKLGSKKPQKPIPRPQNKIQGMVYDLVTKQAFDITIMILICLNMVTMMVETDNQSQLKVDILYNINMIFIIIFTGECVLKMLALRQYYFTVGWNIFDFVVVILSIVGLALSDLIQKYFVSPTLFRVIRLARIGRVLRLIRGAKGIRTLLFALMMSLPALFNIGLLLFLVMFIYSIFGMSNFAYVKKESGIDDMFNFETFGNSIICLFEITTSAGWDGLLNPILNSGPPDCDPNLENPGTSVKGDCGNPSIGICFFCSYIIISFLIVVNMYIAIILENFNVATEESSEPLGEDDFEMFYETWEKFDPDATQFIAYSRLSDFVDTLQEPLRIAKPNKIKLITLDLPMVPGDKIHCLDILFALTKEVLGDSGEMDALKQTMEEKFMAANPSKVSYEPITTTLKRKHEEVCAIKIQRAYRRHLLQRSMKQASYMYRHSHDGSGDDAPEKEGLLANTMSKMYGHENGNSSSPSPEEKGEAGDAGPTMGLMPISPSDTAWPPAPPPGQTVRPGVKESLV

This assay concerns the target T1, hNav1.4 (human skeletal muscle sodium channel) (Homo sapiens, UniProt P35499).
T1 construct: gene SCN4A; alpha subunit permanently transfected in HEK293 cells; no beta subunit mentioned
The assay is described as follows: whole-cell patch clamp, sodium current in HEK293. The format is cell-based. The conditions noted are these: read-out: IC50 (μM) / 50 Hz, hp - 90 mV. The text has this: whole-cell patch clamp, sodium current in HEK293 on hNav1.4 (human skeletal muscle sodium channel)
In general terms: Patch clamp records ionic current or voltage across a cell membrane.

In the case of `Cc1ccccc1C(OCCN(C)C)c1ccccc1` (stereo not shown) [Orphenadrine], the IC50 was roughly 5 µM.
